For the assay, the target named is flag-tagged Cspg4 (zebrafish chondroitin sulfate proteoglycan 4) (zebrafish). In words: co-IP; HEK-293T cells co-transfected with Cspg4-FLAG and Wnt11-HA; lysis buffer 50 mM Tris HCl pH 7.4, 150 mM NaCl, 1 mM EDTA, 1% Triton X-100; Anti-FLAG M2 magnetic beads precipitate Cspg4-FLAG; blot with anti-HA.

No constants are given. Whether binding was seen depends on the method and setting. Binding seen in cells or lysates may run through a third protein. Binding calls can cover weak binding; strength is not graded here. Where a sequence is shown, tags or fusion partners need not be part of it.

B1: HA-tagged Wnt11 (zebrafish) (ligand, UniProt O73864 24-354)
chain: ISWLGLTINGSSVGWNQTHHCKLLDGLVPDQQQLCKRNLELMHSIVRAARLTKSACTSSFSDMRWNWSSIESAPHFTPDLAKGTREAAFVVSLAAAVVSHAIARACASGDLPSCSCAAMPSEQAAPDFRWGGCGDNLRYYGLQMGSAFSDAPMRNRRSGPQDFRLMQLHNNAVGRQVLMDSLEMKCKCHGVSGSCSVKTCWKGLQDISTISADLKSKYLSATKVIPRQIGTRRQLVPREMEVRPVGENELVYLVSSPDYCTQNAKQGSLGTTDRQCNKTASGSESCGLMCCGRGYNAYTEVLVERCQCKYHWCCYVSCKTCKRTVERYVSK
In the case of B1, the binding result is “binds”.

For the origin of these results see publication PMC7117731.
